Experimental data: PubChem BioAssay AID1259425 (University of Nebraska Medical Center, 2018)

Aim: 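Seek colon cancer weak points whose silencing resembles KSR1 loss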 (primary screen)
System: HCT116 human colon cancer cells
Knock-down reagent: siRNA pool against human genes, 50 nM siRNA
Read-out: 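After 50 nM siRNA pool, branched-DNA assay measures six marker transcripts per well, minus blank, normalised to the geometric mean of two housekeeping transcripts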
Reading the numbers: BNIP3L mRNA: higher = more BNIP3L transcript after knockdown; NDRG1 mRNA: higher = more NDRG1 transcript after knockdown
Shown is one part, drawn at random, of about 14,000 reagents tested. Further read-outs or replicates are left out here. The record does not give: the time to read-out.

Depletion of CEP55 (centrosomal protein 55) gave: BNIP3L mRNA, set 1 = 0.273; NDRG1 mRNA, set 1 = 0.225. Silencing of CNOT6 (CCR4-NOT transcription complex subunit 6) gave: BNIP3L mRNA, set 1 = 0.105; NDRG1 mRNA, set 1 = 0.106. After knock-down of PDZD4 (PDZ domain containing 4) the results were BNIP3L mRNA, set 1 = 0.0736; NDRG1 mRNA, set 1 = 0.24. For PNPLA3, the values are BNIP3L mRNA, set 1 = 0.118; NDRG1 mRNA, set 1 = 0.171. Knock-down of TTLL5 (tubulin tyrosine ligase like 5) came out at: BNIP3L mRNA, set 1 = 0.0743; NDRG1 mRNA, set 1 = 0.187. Silencing of GFM2 (GTP dependent ribosome recycling factor mitochondrial GFM2) resulted in: BNIP3L mRNA, set 1 = 0.113; NDRG1 mRNA, set 1 = 0.124.

Knock-down of TUBGCP3 (tubulin gamma complex component 3) gave: BNIP3L mRNA, set 1 = 0.0871; NDRG1 mRNA, set 1 = 0.193. With knock-down of LPGAT1 (lysophosphatidylglycerol acyltransferase 1) the results were BNIP3L mRNA, set 1 = 0.0392; NDRG1 mRNA, set 1 = 0.325. SACK1A (scaffolding CK1 anchoring protein A) scored BNIP3L mRNA, set 1 = 0.16; NDRG1 mRNA, set 1 = 0.675. ABHD17C (abhydrolase domain containing 17C, depalmitoylase) showed BNIP3L mRNA, set 1 = 0.108; NDRG1 mRNA, set 1 = 0.23. For CILP (cartilage intermediate layer protein) the deposit lists BNIP3L mRNA, set 1 = 0.19; NDRG1 mRNA, set 1 = 0.453. After knock-down of EHD4 (EH domain containing 4) the results were BNIP3L mRNA, set 1 = 0.0862; NDRG1 mRNA, set 1 = 0.234.

With knock-down of PCBP2 (poly(rC) binding protein 2), the screen gave BNIP3L mRNA, set 1 = 0.0772; NDRG1 mRNA, set 1 = 0.278. Depletion of HOXD10 (homeobox D10) resulted in: BNIP3L mRNA, set 1 = 0.128; NDRG1 mRNA, set 1 = 0.209. TBX6 (T-box transcription factor 6) scored BNIP3L mRNA, set 1 = 0.155; NDRG1 mRNA, set 1 = 0.131. Knock-down of GPR31 (G protein-coupled receptor 31) came out at: BNIP3L mRNA, set 1 = 0.0724; NDRG1 mRNA, set 1 = 0.0369. For OCM2 (oncomodulin 2), the values are BNIP3L mRNA, set 1 = 0.206; NDRG1 mRNA, set 1 = 0.17. After knock-down of PLEKHS1 (pleckstrin homology domain containing S1) the results were BNIP3L mRNA, set 1 = 0.088; NDRG1 mRNA, set 1 = 0.558.

For MCTP1 (multiple C2 and transmembrane domain containing 1), the entry reads BNIP3L mRNA, set 1 = 0.0787; NDRG1 mRNA, set 1 = 0.26. SURF6 (surfeit 6) scored BNIP3L mRNA, set 1 = 0.151; NDRG1 mRNA, set 1 = 0.352. Knock-down of PSMC3 (proteasome 26S subunit, ATPase 3) gave: BNIP3L mRNA, set 1 = 0.51; NDRG1 mRNA, set 1 = 1.36. Against A1CF (APOBEC1 complementation factor), the entry reads BNIP3L mRNA, set 1 = 0.0899; NDRG1 mRNA, set 1 = 0.108. Knock-down of MAPKAPK2 (MAPK activated protein kinase 2) resulted in: BNIP3L mRNA, set 1 = 0.0639; NDRG1 mRNA, set 1 = 0.219. BRD8 (bromodomain containing 8) scored BNIP3L mRNA, set 1 = 0.126; NDRG1 mRNA, set 1 = 0.778.

For ZNF652 (zinc finger protein 652) the deposit lists BNIP3L mRNA, set 1 = 0.0524; NDRG1 mRNA, set 1 = 0.23. For TMEM107 (transmembrane protein 107) the deposit lists BNIP3L mRNA, set 1 = 0.256; NDRG1 mRNA, set 1 = 0.29. With knock-down of MAPT (microtubule associated protein tau) the results were BNIP3L mRNA, set 1 = 0.18; NDRG1 mRNA, set 1 = 0.391. With knock-down of BLZF1 (basic leucine zipper nuclear factor 1), the record shows BNIP3L mRNA, set 1 = 0.0972; NDRG1 mRNA, set 1 = 0.273.

4 neighbouring records already listed:
TUBGCP3 (tubulin gamma complex component 3) → BNIP3L mRNA, set 1 = 0.0871; NDRG1 mRNA, set 1 = 0.193
LPGAT1 (lysophosphatidylglycerol acyltransferase 1) → BNIP3L mRNA, set 1 = 0.0392; NDRG1 mRNA, set 1 = 0.325
SACK1A (scaffolding CK1 anchoring protein A) → BNIP3L mRNA, set 1 = 0.16; NDRG1 mRNA, set 1 = 0.675
ABHD17C (abhydrolase domain containing 17C, depalmitoylase) → BNIP3L mRNA, set 1 = 0.108; NDRG1 mRNA, set 1 = 0.23
